# Test results published in the supplement of paper PMC4604168 (melanoma cell lines).
# Some of the results follow. Many values rest on one well or one pass, so single values are uncertain.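 Imaging used 1,536-well plates; nuclei positive for cleaved PARP by antibody were divided by total DNA-stained nuclei to yield the apoptosis fraction. Doses for screening kept most cells viable, and cell lines differ markedly in resting and induced cleaved-PARP levels.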
# System: RVH-421
# Assay: cleaved PARP positive nuclei fraction relative to DMSO control; melanoma cells; higher = more apoptosis
# Details: library dose: low library concentration; 72 h
row,Compound,cleaved PARP positive nuclei fraction
1,"O=C(CCCCCCC(=O)Nc1ccccc1)NO [vorinostat] + COc1ccc2c(c1)CCC1C2CCC2(C)C(NCCCCCCN3C(=O)C=CC3=O)CCC12 [U73122] (first compound 0.08 µM, partner dose 0.4 µM)",32.2%
2,"Cn1nnc2c(C(N)=O)ncn2c1=O [temozolomide] + COc1ccc(COc2ccc(Cc3cnc(N)nc3N)cc2OC)cc1 [GW2580] (first compound 2 µM, partner dose 1 µM)",22.2%
3,"OCCn1cc(-c2cnc3nnn(Cc4ccc5ncccc5c4)c3n2)cn1 + COc1ccc(-c2ccc3c(N4CCOCC4)nc(N4C[C@@H](C)O[C@@H](C)C4)nc3n2)cc1CO [KU0063794] (first compound 1 µM, partner dose 0.02 µM)",47.8%
4,"Cc1ccc(NC(=O)c2cccc(N(C)C)c2)cc1NC(=O)c1ccc(O)cc1 + Cn1cc(/C=C2\C(=O)Nc3cccnc32)c2ccccc21 [GW441756] (first compound 2 µM, partner dose 0.4 µM)",118%
5,"Cc1ccc(NC(=O)c2cccc(N(C)C)c2)cc1NC(=O)c1ccc(O)cc1 + CCCCCCCCCCCC1=C(O)C(=O)C=C(O)C1=O [Embelin] (first compound 2 µM, partner dose 1.2 µM)",15.7%
6,"Cn1cncc1[C@@](N)(c1ccc(Cl)cc1)c1ccc2c(c1)c(-c1cccc(Cl)c1)cc(=O)n2C [tipifarnib] + Cc1cc([N+](=O)[O-])ccc1NS(=O)(=O)c1cc(Cl)ccc1Cl [FH535] (first compound 0.01 µM, partner dose 1 µM)",183%
7,"Cn1c(Nc2ccc(C(F)(F)F)cc2)nc2cc(Oc3ccnc(-c4ncc(C(F)(F)F)[nH]4)c3)ccc21 + COc1ccc2c(c1)CCC1C2CCC2(C)C(NCCCCCCN3C(=O)C=CC3=O)CCC12 [U73122] (first compound 0.08 µM, partner dose 0.4 µM)",87%
8,"Cn1cncc1[C@@](N)(c1ccc(Cl)cc1)c1ccc2c(c1)c(-c1cccc(Cl)c1)cc(=O)n2C [tipifarnib] + Oc1cc(-c2nc(-c3ccccc3)[nH]c2-c2ccncc2)ccc1Cl [L779450] (first compound 0.01 µM, partner dose 0.2 µM)",102%
9,"OCCn1cc(-c2cnc3nnn(Cc4ccc5ncccc5c4)c3n2)cn1 + O=C(O)C(=O)Nc1sc2c(c1C(=O)O)CCNC2 [TCS401] (first compound 1 µM, partner dose 1.66667 µM)",1350%
10,"C=CCn1c(=O)c2cnc(Nc3ccc(N4CCN(C)CC4)cc3)nc2n1-c1cccc(C(C)(C)O)n1 + Oc1nc(-c2ccc(C(F)(F)F)cc2)nc2c1CSCC2 [XAV939] (first compound 0.02 µM, partner dose 2 µM)",115%
11,"Nc1cccc2c1CN(C1CCC(=O)NC1=O)C2=O (centres undefined) [lenalidomide] + CCCCCCCCCCCC1=C(O)C(=O)C=C(O)C1=O [Embelin] (first compound 1 µM, partner dose 1.2 µM)",87.9%
12,"C[C@@H]1CCN(C(=O)CC#N)C[C@@H]1N(C)c1ncnc2[nH]ccc12 + Oc1cc(-c2nc(-c3ccccc3)[nH]c2-c2ccncc2)ccc1Cl [L779450] (first compound 1 µM, partner dose 0.2 µM)",131%
13,"Cc1cc(N2CCOCC2)cc2[nH]c(-c3c(NC[C@@H](O)c4cccc(Cl)c4)cc[nH]c3=O)nc12 + Cc1cc([N+](=O)[O-])ccc1NS(=O)(=O)c1cc(Cl)ccc1Cl [FH535] (first compound 0.2 µM, partner dose 1 µM)",125%
14,"C=CCn1c(=O)c2cnc(Nc3ccc(N4CCN(C)CC4)cc3)nc2n1-c1cccc(C(C)(C)O)n1 + O=C1NC(=O)/C(=C/c2ccc(-c3ccc(F)cc3O)o2)S1 [AS252424] (first compound 0.02 µM, partner dose 1 µM)",65.8%
15,"Cc1ccc(NC(=O)c2cccc(N(C)C)c2)cc1NC(=O)c1ccc(O)cc1 + N#Cc1c(O)c2c(-c3ccc(-c4ccccc4O)cc3)csc2[nH]c1=O [A769662] (first compound 2 µM, partner dose 2 µM)",51.6%
16,"Cn1cncc1[C@@](N)(c1ccc(Cl)cc1)c1ccc2c(c1)c(-c1cccc(Cl)c1)cc(=O)n2C [tipifarnib] + CCN(CC)CCCCNc1ncc2cc(-c3cc(OC)cc(OC)c3)c(NC(=O)NC(C)(C)C)nc2n1 [PD173074] (first compound 0.01 µM, partner dose 0.1 µM)",123%
17,"O=C(CCCCCCC(=O)Nc1ccccc1)NO [vorinostat] + CCCCCCCCCCCC1=C(O)C(=O)C=C(O)C1=O [Embelin] (first compound 0.08 µM, partner dose 1.2 µM)",72.1%

# Some values from the entries so far:
# O=C(CCCCCCC(=O)Nc1ccccc1)NO [vorinostat] + COc1ccc2c(c1)CCC1C2CCC2(C)C(NCCCCCCN3C(=O)C=CC3=O)CCC12 [U73122] (first compound 0.08 µM, partner dose 0.4 µM) | cleaved PARP positive nuclei fraction: 32.2%
# Cn1cncc1[C@@](N)(c1ccc(Cl)cc1)c1ccc2c(c1)c(-c1cccc(Cl)c1)cc(=O)n2C [tipifarnib] + Oc1cc(-c2nc(-c3ccccc3)[nH]c2-c2ccncc2)ccc1Cl [L779450] (first compound 0.01 µM, partner dose 0.2 µM) | cleaved PARP positive nuclei fraction: 102%
# Cc1ccc(NC(=O)c2cccc(N(C)C)c2)cc1NC(=O)c1ccc(O)cc1 + CCCCCCCCCCCC1=C(O)C(=O)C=C(O)C1=O [Embelin] (first compound 2 µM, partner dose 1.2 µM) | cleaved PARP positive nuclei fraction: 15.7%

# (further entries)

row,Compound,cleaved PARP positive nuclei fraction
1,"Cn1nnc2c(C(N)=O)ncn2c1=O [temozolomide] + Cn1cc(/C=C2\C(=O)Nc3cccnc32)c2ccccc21 [GW441756] (first compound 2 µM, partner dose 0.4 µM)",212%
2,"Nc1cccc2c1CN(C1CCC(=O)NC1=O)C2=O (centres undefined) [lenalidomide] + COc1cc2ncnc(Nc3ccc(Oc4ccccc4)cc3)c2cc1OC [SrcI1] (first compound 1 µM, partner dose 2 µM)",53.5%
3,"COc1cc(Nc2ncc(F)c(Nc3ccc4c(n3)NC(=O)C(C)(C)O4)n2)cc(OC)c1OC [Tamatinib] + CCc1ccc(CCOc2ccc(CC3SC(=O)NC3=O)cc2)nc1 [pioglitazone] (first compound 0.4 µM, partner dose 2 µM)",36.3%
4,"Cc1nc(Nc2ncc(C(=O)Nc3c(C)cccc3Cl)s2)cc(N2CCN(CCO)CC2)n1 [dasatanib] + COc1cc(N2CCC(N3CCN(C)CC3)CC2)ccc1Nc1ncc(Cl)c(Nc2ccccc2S(=O)(=O)C(C)C)n1 [NVP-TAE684] (first compound 0.004 µM, partner dose 0.08 µM)",107%
5,"Cn1c(Nc2ccc(C(F)(F)F)cc2)nc2cc(Oc3ccnc(-c4ncc(C(F)(F)F)[nH]4)c3)ccc21 + Cc1cc([N+](=O)[O-])ccc1NS(=O)(=O)c1cc(Cl)ccc1Cl [FH535] (first compound 0.08 µM, partner dose 1 µM)",44.4%
6,"O=C(CCCCCCC(=O)Nc1ccccc1)NO [vorinostat] + O=S(=O)(c1ccccc1)N(CC(F)(F)F)c1ccc(C(O)(C(F)(F)F)C(F)(F)F)cc1 [T0901317] (first compound 0.08 µM, partner dose 1.4 µM)",83.4%
7,"CC(C)(C)c1cnc(CSc2cnc(NC(=O)C3CCNCC3)s2)o1 + CCc1ccc(CCOc2ccc(CC3SC(=O)NC3=O)cc2)nc1 [pioglitazone] (first compound 0.01 µM, partner dose 2 µM)",72.9%
8,"COc1cc(Nc2ncc(F)c(Nc3ccc4c(n3)NC(=O)C(C)(C)O4)n2)cc(OC)c1OC [Tamatinib] + Cn1cc(/C=C2\C(=O)Nc3cccnc32)c2ccccc21 [GW441756] (first compound 0.4 µM, partner dose 0.4 µM)",100%
9,"C#Cc1cccc(Nc2ncnc3cc(OCCOC)c(OCCOC)cc23)c1 [erlotinib] + N#Cc1c(O)c2c(-c3ccc(-c4ccccc4O)cc3)csc2[nH]c1=O [A769662] (first compound 0.8 µM, partner dose 2 µM)",52.7%
10,"OCCn1cc(-c2cnc3nnn(Cc4ccc5ncccc5c4)c3n2)cn1 + COc1cc(N2CCC(N3CCN(C)CC3)CC2)ccc1Nc1ncc(Cl)c(Nc2ccccc2S(=O)(=O)C(C)C)n1 [NVP-TAE684] (first compound 1 µM, partner dose 0.08 µM)",111%
11,"O=C(Nc1cccc(Cl)c1)Nc1ncc(CCNc2ncnc3ccsc23)s1 + COc1ccc(COc2ccc(Cc3cnc(N)nc3N)cc2OC)cc1 [GW2580] (first compound 0.0008 µM, partner dose 1 µM)",111%
12,"Cc1nc(Nc2ncc(C(=O)Nc3c(C)cccc3Cl)s2)cc(N2CCN(CCO)CC2)n1 [dasatanib] + O=C1NC(=O)/C(=C/c2ccc(-c3ccc(F)cc3O)o2)S1 [AS252424] (first compound 0.004 µM, partner dose 1 µM)",16.4%
13,"C[C@]1(c2nc3c(C(N)=O)cccc3[nH]2)CCCN1 [Veliparib] + Cc1cc([N+](=O)[O-])ccc1NS(=O)(=O)c1cc(Cl)ccc1Cl [FH535] (first compound 1.4 µM, partner dose 1 µM)",132%
14,"C[C@@H]1CCN(C(=O)CC#N)C[C@@H]1N(C)c1ncnc2[nH]ccc12 + COc1cc2ncnc(Nc3ccc(Oc4ccccc4)cc3)c2cc1OC [SrcI1] (first compound 1 µM, partner dose 2 µM)",100%
15,"CC1(C)NC(=O)N(c2ccc([N+](=O)[O-])c(C(F)(F)F)c2)C1=O [nilutamide] + c1cc(-c2cnn3cc(-c4ccc(OCCN5CCCCC5)cc4)cnc23)ccn1 [Dorsomorphin] (first compound 1 µM, partner dose 0.4 µM)",56.5%
16,"C[C@@H]1CCN(C(=O)CC#N)C[C@@H]1N(C)c1ncnc2[nH]ccc12 + c1cc(-c2cnn3cc(-c4ccc(OCCN5CCCCC5)cc4)cnc23)ccn1 [Dorsomorphin] (first compound 1 µM, partner dose 0.4 µM)",64.2%
17,"NC(=O)Nc1cc(-c2cccc(F)c2)sc1C(=O)N[C@H]1CCCNC1 + O=S(=O)(c1ccccc1)N(CC(F)(F)F)c1ccc(C(O)(C(F)(F)F)C(F)(F)F)cc1 [T0901317] (first compound 0.02 µM, partner dose 1.4 µM)",48.1%
